# Measurements reported in PubChem BioAssay AID652259 (Drosophila RNAi Screening Center, 2013).
# Assay: 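Identify new Wingless signalling regulators in fly cells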 (primary screen)
# System: Drosophila clone 8 imaginal disc epithelial cells
# Knock-down reagent: long dsRNA against Drosophila genes
# Challenge: pathway stimulated by co-transfected Wingless expression plasmid
# Read-out: 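Dual luciferase reads per well after Wingless plasmid stimulation: reporter firefly light and Renilla control light; activity is firefly divided by Renilla, a ratio not deposited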
# Direction: firefly reporter light: higher = more Wg reporter light, before normalisation; Renilla control light: higher = more transfected or surviving cells
# Call rule: 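a knock-down is a candidate when at least two out of four statistical tests show it departing from its plate mean; one test alone signals a weak candidate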
# Calls: active = candidate regulator (raises or lowers reporter); inactive = not a candidate
# The deposit covers about 22,000 reagents; shown is an unselected part of those that have a named target and a result. Of all reagents, 233 (1.1%) are marked active. 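Light values are raw, unnormalised plate reads; the ratio scores behind the reporter calls were not deposited.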 Names joined by + are all predicted targets of the reagent. No sequences are given here. Not stated in the record: the amount of reagent, the time to read-out, the dose of the treatment.
Target gene,amplicon,"reporter change call, replicate 1","firefly reporter light, replicate 1","firefly reporter light, replicate 2","Renilla control light, replicate 1","Renilla control light, replicate 2",Call
CG3257,DRSC04351,,11286,,4800,,inactive
GstO1,DRSC10688,,1786,4389,1155,2753,inactive
CG6761,DRSC10705,,2905,,1024,,inactive
Pef,DRSC06695,,14800,,3287,,inactive
Akt,DRSC14108,,1748,4064,437,1261,inactive
CG15614,DRSC06567,,6656,,1867,,inactive
feo,DRSC19398,,3968,,1201,,inactive
Obp56a,DRSC06085,,6432,,2272,,inactive
CG30151,DRSC05888,,19489,,13297,,inactive
dap,DRSC07601,,10690,,2793,,inactive
nxf4,DRSC12548,,10007,,3266,,inactive
Scr,DRSC12604,,18421,,2100,,inactive
Su(H),DRSC03445,,1907,3312,1000,2164,inactive
und,DRSC03629,,8296,,3433,,inactive
CG32022,DRSC09678,,1376,5781,1306,2822,inactive
RpS5b,DRSC16173,,10491,,3057,,inactive
Fit1,DRSC08450,,8500,,1718,,inactive
CG14357,DRSC14820,,13765,,2928,,inactive
l(3)neo43,DRSC14988,,14640,,2265,,inactive
angel,DRSC04670,,19013,,5904,,inactive
angel,DRSC21326,,5.32e5,5.53e5,3.18e5,2.59e5,inactive
Eno,DRSC00750,,3860,8562,999,3248,inactive
ase,DRSC18739,,18736,,11552,,inactive
His-Psi:CR31616 + His-Psi:CR31615,DRSC03760,Wg reporter activity raised,20461,,2507,,active
dyl,DRSC08466,,5890,,2803,,inactive
dyl,DRSC08467,,8096,,3594,,inactive
CG43894,DRSC09225,,3857,,2240,,inactive
CG43894,DRSC10123,,6293,,1650,,inactive
MED4,DRSC11014,,5776,,1286,,inactive
Traf6,DRSC18725,,20853,,11674,,inactive
CG13484,DRSC10026,,5188,,2215,,inactive
CG6454,DRSC16044,,2581,8112,1027,1699,inactive
CG14089,DRSC10093,,14953,,4454,,inactive

Continued (5 carried over from the part before).
Target gene,amplicon,"reporter change call, replicate 1","firefly reporter light, replicate 1","firefly reporter light, replicate 2","Renilla control light, replicate 1","Renilla control light, replicate 2",Call
MED4,DRSC11014,,5776,,1286,,inactive
Traf6,DRSC18725,,20853,,11674,,inactive
CG13484,DRSC10026,,5188,,2215,,inactive
CG6454,DRSC16044,,2581,8112,1027,1699,inactive
CG14089,DRSC10093,,14953,,4454,,inactive
side-III,DRSC12155,,15819,,2982,,inactive
side-III,DRSC12263,,15653,,1755,,inactive
side-III,DRSC12264,,16882,,4296,,inactive
CG7377,DRSC10830,,8397,,2344,,inactive
grau,DRSC04691,,2679,5941,560,2135,inactive
PK1-R,DRSC16577,,17222,,3522,,inactive
rig,DRSC06053,,11136,,3336,,inactive
rig,DRSC06400,,5192,,2221,,inactive
shop,DRSC20030,,2889,7980,1202,2672,inactive
Cpr64Ad,DRSC08284,Wg reporter activity raised,9901,,4165,,inactive
CG14835,DRSC10205,,1699,9260,1309,3371,inactive
ECSIT,DRSC12348,,13389,,3112,,inactive
CG31183,DRSC14403,,15753,,2597,,inactive
CG31183,DRSC15554,,2772,7308,1408,1364,inactive
Rad60,DRSC15580,,15015,,11792,,inactive
SmydA-9,DRSC17814,,21435,,7688,,inactive
CG3092,DRSC04336,,9206,,3009,,inactive
CG9577,DRSC20693,,23792,6.44e5,12037,3.33e5,inactive
CG12643,DRSC17849,,20215,,9878,,inactive
CG1965,DRSC12577,,10576,,4800,,inactive
CG1965,DRSC21828,,6.14e5,5.61e5,2.82e5,2.01e5,inactive
homer,DRSC03547,,6693,,2581,,inactive
CG11703,DRSC14356,,3302,6219,1926,2244,inactive
Or1a,DRSC18689,,23658,,14477,,inactive
CG4743,DRSC15636,,14419,,11619,,inactive
CG31806,DRSC02787,,1659,7002,669,3345,inactive
Hgsnat,DRSC18405,,2584,7803,1034,1228,inactive
Jhedup,DRSC07173,,6211,,2228,,inactive
Recs1,DRSC16545,,10337,,2212,,inactive
Lztr1,DRSC18176,,27992,,13981,,inactive
Lztr1,DRSC18647,,17012,,12855,,inactive
cic,DRSC14276,,18234,,1979,,inactive
cic,DRSC15708,Wg reporter activity raised,16256,,1408,,active
cic,DRSC16918,Wg reporter activity lowered,3989,,3430,,active
cic,DRSC21243,,19765,,8960,,inactive
CR42532,DRSC06713,,7776,,3210,,inactive
bond,DRSC16135,,2112,4418,924,945,inactive
lqfR,DRSC14703,,1930,5465,716,1405,inactive
lqfR,DRSC14704,,38283,,8355,,inactive
CG13527,DRSC04169,,3421,7276,601,2562,inactive
